# Results published in the supplement of paper PMC8728848.
# Some of the results follow.
# B1: AT1G80310(18) (Arabidopsis thaliana), Q0WP36 (protein)
# chain: METTTTPLLPGDRSRCGWLRRRLRLKNPLSSELSGAVGDLGTFIPIVLTLTLVSNLDLSTTLIFTGFYNIATGLLFDIPMPVQPMKSIAAVAVSESPHLTPSQIAAAGASTAATLLLLGATGAMSFLYNIIPLPVVRGVQLSQGLQFAFTAIKYVRFNYDTATLKPSSSPRIWLGLDGLILALAALLFIILSTGSGNDREAEDGDLAETSSNESQSRRRRLRLLSSIPSALIVFALGLVLCFIRDPSIFKDLKFGPSKFHILRISWDDWKIGFLRAAIPQIPLSVLNSVIAVCKLSNDLFDKELSATTVSISVGVMNLIGCWFGAMPVCHGAGGLAGQYRFGARSGLSVIFLGIGKLIVGLVFGNSFVRILSQFPIGILGVLLLFAGIELAMASKDMNSKEDSFIMLVCAAVSMTGSSAALGFGCGVVLYLLLKLRTLDCSSVTLFSRSSDESQVDSEAAPRDV
# Columns and labels:
# Test in all cases: glycan array binding signal (z-score within array); higher = stronger binding
# Conditions in all cases: glycan notation: IUPAC condensed, linker removed
# [1] = target: Gal(b1-4)GlcNAc(b1-3)Gal(b1-4)GlcNAc(b1-2)Man(a1-3)[Gal(b1-4)GlcNAc(b1-3)Gal(b1-4)GlcNAc(b1-2)Man(a1-6)]Man(b1-4)GlcNAc(b1-4)[Fuc(a1-6)]GlcNAc
# Procedure, shortened: (§1)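 Glycan array data were curated from 3228 arrays in the Consortium for Functional Glycomics database and kept only where the protein sequence was available. Glycan names were converted to IUPAC-condensed notation, and columns mapping to the same glycan were averaged. The binding signal is a within-array Z-score, averaged across arrays of the same protein sequence at different concentrations or buffers and across linkers. Negative Z-scores can be read as non-binding.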
# [2] = target: Gal(b1-4)GlcNAc(b1-3)Gal(b1-4)GlcNAc(b1-2)[Gal(b1-4)GlcNAc(b1-3)Gal(b1-4)GlcNAc(b1-6)]Man(a1-6)[Gal(b1-4)GlcNAc(b1-3)Gal(b1-4)GlcNAc(b1-2)Man(a1-3)]Man(b1-4)GlcNAc(b1-4)GlcNAc
# Procedure, shortened: as §1
# [3] = target: Gal(b1-4)GlcNAc(b1-3)Gal(b1-4)GlcNAc(b1-2)[Gal(b1-4)GlcNAc(b1-3)Gal(b1-4)GlcNAc(b1-6)]Man(a1-6)[Gal(b1-4)GlcNAc(b1-3)Gal(b1-4)GlcNAc(b1-2)Man(a1-3)]Man(b1-4)GlcNAc(b1-4)[Fuc(a1-6)]GlcNAc
# Procedure, shortened: as §1
# [4] = target: Gal(b1-4)GlcNAc(b1-3)Gal(b1-4)GlcNAc(b1-3)Gal(b1-4)GlcNAc
# Procedure, shortened: as §1
# [5] = target: Gal(b1-4)GlcNAc(b1-3)Gal(b1-4)GlcNAc(b1-3)Gal(b1-4)GlcNAc(b1-2)Man(a1-3)[Gal(b1-4)GlcNAc(b1-3)Gal(b1-4)GlcNAc(b1-3)Gal(b1-4)GlcNAc(b1-2)Man(a1-6)]Man(b1-4)GlcNAc(b1-4)GlcNAc
# Procedure, shortened: as §1
# [6] = target: Gal(b1-4)GlcNAc(b1-3)Gal(b1-4)GlcNAc(b1-3)Gal(b1-4)GlcNAc(b1-2)Man(a1-3)[Gal(b1-4)GlcNAc(b1-3)Gal(b1-4)GlcNAc(b1-3)Gal(b1-4)GlcNAc(b1-2)Man(a1-6)]Man(b1-4)GlcNAc(b1-4)[Fuc(a1-6)]GlcNAc
# Procedure, shortened: as §1
# [7] = target: Gal(b1-4)GlcNAc(b1-3)Gal(b1-4)GlcNAc(b1-3)Gal(b1-4)GlcNAc(b1-2)[Gal(b1-4)GlcNAc(b1-3)Gal(b1-4)GlcNAc(b1-3)Gal(b1-4)GlcNAc(b1-6)]Man(a1-6)[Gal(b1-4)GlcNAc(b1-3)Gal(b1-4)GlcNAc(b1-3)Gal(b1-4)GlcNAc(b1-2)Man(a1-3)]Man(b1-4)GlcNAc(b1-4)[Fuc(a1-6)]GlcNAc
# Procedure, shortened: as §1
# [8] = target: Gal(b1-4)GlcNAc(b1-3)Gal(b1-4)GlcNAc(b1-3)Gal(b1-4)GlcNAc(b1-3)Gal(b1-4)GlcNAc(b1-2)Man(a1-3)[Gal(b1-4)GlcNAc(b1-3)Gal(b1-4)GlcNAc(b1-3)Gal(b1-4)GlcNAc(b1-3)Gal(b1-4)GlcNAc(b1-2)Man(a1-6)]Man(b1-4)GlcNAc(b1-4)GlcNAc
# Procedure, shortened: as §1
# [9] = target: Gal(b1-4)GlcNAc(b1-3)Gal(b1-4)GlcNAc(b1-3)Gal(b1-4)GlcNAc(b1-3)Gal(b1-4)GlcNAc(b1-2)Man(a1-3)[Gal(b1-4)GlcNAc(b1-3)Gal(b1-4)GlcNAc(b1-3)Gal(b1-4)GlcNAc(b1-3)Gal(b1-4)GlcNAc(b1-2)Man(a1-6)]Man(b1-4)GlcNAc(b1-4)[Fuc(a1-6)]GlcNAc
# Procedure, shortened: as §1
# [10] = target: Gal(b1-4)GlcNAc(b1-3)Gal(b1-4)GlcNAc(b1-3)Gal(b1-4)GlcNAc(b1-3)Gal(b1-4)GlcNAc(b1-2)[Gal(b1-4)GlcNAc(b1-3)Gal(b1-4)GlcNAc(b1-3)Gal(b1-4)GlcNAc(b1-3)Gal(b1-4)GlcNAc(b1-6)]Man(a1-6)[Gal(b1-4)GlcNAc(b1-3)Gal(b1-4)GlcNAc(b1-3)Gal(b1-4)GlcNAc(b1-3)Gal(b1-4)GlcNAc(b1-2)Man(a1-3)]Man(b1-4)GlcNAc(b1-4)[Fuc(a1-6)]GlcNAc
# Procedure, shortened: as §1
# [11] = target: Gal(b1-4)GlcNAc(b1-3)Gal(b1-4)GlcNAc(b1-3)Gal(b1-4)GlcNAc(b1-3)Gal(b1-4)GlcNAc(b1-3)Gal(b1-4)GlcNAc(b1-2)Man(a1-3)[Gal(b1-4)GlcNAc(b1-3)Gal(b1-4)GlcNAc(b1-3)Gal(b1-4)GlcNAc(b1-3)Gal(b1-4)GlcNAc(b1-3)Gal(b1-4)GlcNAc(b1-2)Man(a1-6)]Man(b1-4)GlcNAc(b1-4)GlcNAc
# Procedure, shortened: as §1
# [12] = target: Gal(b1-4)GlcNAc(b1-3)Gal(b1-4)GlcNAc(b1-3)Gal(b1-4)GlcNAc(b1-3)Gal(b1-4)GlcNAc(b1-3)Gal(b1-4)GlcNAc(b1-2)Man(a1-3)[Gal(b1-4)GlcNAc(b1-3)Gal(b1-4)GlcNAc(b1-3)Gal(b1-4)GlcNAc(b1-3)Gal(b1-4)GlcNAc(b1-3)Gal(b1-4)GlcNAc(b1-2)Man(a1-6)]Man(b1-4)GlcNAc(b1-4)[Fuc(a1-6)]GlcNAc
# Procedure, shortened: as §1
# [13] = target: Gal(b1-4)GlcNAc(b1-3)Gal(b1-4)GlcNAc(b1-3)Gal(b1-4)GlcNAc(b1-3)Gal(b1-4)GlcNAc(b1-3)Gal(b1-4)GlcNAc(b1-2)[Gal(b1-4)GlcNAc(b1-3)Gal(b1-4)GlcNAc(b1-3)Gal(b1-4)GlcNAc(b1-3)Gal(b1-4)GlcNAc(b1-3)Gal(b1-4)GlcNAc(b1-6)]Man(a1-6)[Gal(b1-4)GlcNAc(b1-3)Gal(b1-4)GlcNAc(b1-3)Gal(b1-4)GlcNAc(b1-3)Gal(b1-4)GlcNAc(b1-3)Gal(b1-4)GlcNAc(b1-2)Man(a1-3)]Man(b1-4)GlcNAc(b1-4)[Fuc(a1-6)]GlcNAc
# Procedure, shortened: as §1
# [14] = target: Gal(b1-4)GlcNAc(b1-3)Gal(b1-4)GlcNAc(b1-3)Gal(b1-4)GlcNAc(b1-3)Gal(b1-4)GlcNAc(b1-3)Gal(b1-4)GlcNAc(b1-3)Gal(b1-4)GlcNAc(b1-2)Man(a1-3)[Gal(b1-4)GlcNAc(b1-3)Gal(b1-4)GlcNAc(b1-3)Gal(b1-4)GlcNAc(b1-3)Gal(b1-4)GlcNAc(b1-3)Gal(b1-4)GlcNAc(b1-3)Gal(b1-4)GlcNAc(b1-2)Man(a1-6)]Man(b1-4)GlcNAc(b1-4)GlcNAc
# Procedure, shortened: as §1
# [15] = target: Gal(b1-4)GlcNAc(b1-3)Gal(b1-4)GlcNAc(b1-3)GalNAc
# Procedure, shortened: as §1
# [16] = target: Gal(b1-4)GlcNAc(b1-3)Gal(b1-4)GlcNAc(b1-3)[Gal(b1-4)GlcNAc(b1-3)Gal(b1-4)GlcNAc(b1-6)]GalNAc
# Procedure, shortened: as §1
# [17] = target: Gal(b1-4)GlcNAc(b1-3)Gal(b1-4)GlcNAc(b1-6)[Gal(b1-3)]GalNAc
# Procedure, shortened: as §1
# [18] = target: Gal(b1-4)GlcNAc(b1-3)Gal(b1-4)[Fuc(a1-3)]GlcNAc(b1-3)Gal(b1-4)[Fuc(a1-3)]GlcNAc
# Procedure, shortened: as §1
# [19] = target: Gal(b1-4)GlcNAc(b1-3)GalNAc
# Procedure, shortened: as §1
# [20] = target: Gal(b1-4)GlcNAc(b1-3)[Fuc(a1-3)GlcNAc(b1-6)]Gal(b1-4)Glc
# Procedure, shortened: as §1
# [21] = target: Gal(b1-4)GlcNAc(b1-3)[Gal(b1-4)GlcNAc(b1-6)]Gal(b1-4)GlcNAc
# Procedure, shortened: as §1
# [22] = target: Gal(b1-4)GlcNAc(b1-3)[GlcNAc(b1-6)]Gal(b1-4)GlcNAc
# Procedure, shortened: as §1
# [23] = target: Gal(b1-4)GlcNAc(b1-6)Gal(b1-4)GlcNAc
# Procedure, shortened: as §1
# [24] = target: Gal(b1-4)GlcNAc(b1-6)GalNAc
# Procedure, shortened: as §1
# [25] = target: Gal(b1-4)GlcNAc(b1-6)[Gal(b1-3)]GalNAc
# Procedure, shortened: as §1
# [26] = target: Gal(b1-4)GlcNAc(b1-6)[Gal(b1-4)GlcNAc(b1-3)]GalNAc
# Procedure, shortened: as §1
# [27] = target: Gal(b1-4)GlcNAc6P
# Procedure, shortened: as §1
# [28] = target: Gal(b1-6)Gal
# Procedure, shortened: as §1
# [29] = target: Gal3S(b1-3)GalNAc
# Procedure, shortened: as §1
# [30] = target: Gal3S(b1-3)GlcNAc
# Procedure, shortened: as §1
# [31] = target: Gal3S(b1-3)[Fuc(a1-4)]GlcNAc
# Procedure, shortened: as §1
# [32] = target: Gal3S(b1-4)Glc
# Procedure, shortened: as §1
# [33] = target: Gal3S(b1-4)Glc6S
# Procedure, shortened: as §1
# [34] = target: Gal3S(b1-4)GlcNAc
# Procedure, shortened: as §1
# [35] = target: Gal3S(b1-4)[Fuc(a1-3)]Glc6S
# Procedure, shortened: as §1
# [36] = target: Gal3S(b1-4)[Fuc(a1-3)]GlcNAc
# Procedure, shortened: as §1
# [37] = target: Gal3S(b1-4)[Fuc(a1-3)]GlcNAc6S
# Procedure, shortened: as §1
binder,measurement,setting,value
B1,glycan array binding signal (z-score),[1],-0.63
same,glycan array binding signal (z-score),[2],0.12
same,glycan array binding signal (z-score),[3],-0.096
same,glycan array binding signal (z-score),[4],-0.53
same,glycan array binding signal (z-score),[5],-0.649
same,glycan array binding signal (z-score),[6],-0.004
same,glycan array binding signal (z-score),[7],-0.559
same,glycan array binding signal (z-score),[8],-0.654
same,glycan array binding signal (z-score),[9],-0.386
same,glycan array binding signal (z-score),[10],-0.802
same,glycan array binding signal (z-score),[11],-0.545
same,glycan array binding signal (z-score),[12],-0.718
same,glycan array binding signal (z-score),[13],-0.714
same,glycan array binding signal (z-score),[14],-0.849
same,glycan array binding signal (z-score),[15],-0.75
same,glycan array binding signal (z-score),[16],-0.689
same,glycan array binding signal (z-score),[17],-0.516
same,glycan array binding signal (z-score),[18],-0.8
same,glycan array binding signal (z-score),[19],-0.162
same,glycan array binding signal (z-score),[20],-0.307
same,glycan array binding signal (z-score),[21],-0.576
same,glycan array binding signal (z-score),[22],0.817
same,glycan array binding signal (z-score),[23],-0.353
same,glycan array binding signal (z-score),[24],0.79
same,glycan array binding signal (z-score),[25],-0.508
same,glycan array binding signal (z-score),[26],1.58
same,glycan array binding signal (z-score),[27],-0.807
same,glycan array binding signal (z-score),[28],0.742
same,glycan array binding signal (z-score),[29],-0.821
same,glycan array binding signal (z-score),[30],-0.599
same,glycan array binding signal (z-score),[31],-0.37
same,glycan array binding signal (z-score),[32],-0.538
same,glycan array binding signal (z-score),[33],-0.508
same,glycan array binding signal (z-score),[34],-0.046
same,glycan array binding signal (z-score),[35],0.008
same,glycan array binding signal (z-score),[36],1.13
same,glycan array binding signal (z-score),[37],-0.286

# Part of the list above, as tab-separated lines.
binder	measurement	setting	value
B1	glycan array binding signal (z-score)	[4]	-0.53
same	glycan array binding signal (z-score)	[29]	-0.821
